The experiment addresses Annexin A2 (ANXA2) (human (endogenous in HUVECs)) (UniProt P07355). Kind of experiment: co-IP; endogenous proteins in HUVECs; Pierce Co-Immunoprecipitation Kit; immunoprecipitated with antibodies, then western blotting; IgG as negative control. For orientation: Immunoblotting shows a protein as a band on a membrane.

The chains behind the UniProt entries cited, without tags or fusion partners.
UniProt P07355: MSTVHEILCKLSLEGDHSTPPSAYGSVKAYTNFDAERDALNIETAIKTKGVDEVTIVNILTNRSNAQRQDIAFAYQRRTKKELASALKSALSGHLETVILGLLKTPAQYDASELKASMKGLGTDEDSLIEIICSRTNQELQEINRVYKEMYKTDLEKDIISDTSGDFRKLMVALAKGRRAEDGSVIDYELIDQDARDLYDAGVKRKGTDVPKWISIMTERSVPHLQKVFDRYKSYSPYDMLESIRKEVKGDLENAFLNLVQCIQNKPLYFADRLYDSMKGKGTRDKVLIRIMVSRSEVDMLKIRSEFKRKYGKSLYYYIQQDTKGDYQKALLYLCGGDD
UniProt P19474: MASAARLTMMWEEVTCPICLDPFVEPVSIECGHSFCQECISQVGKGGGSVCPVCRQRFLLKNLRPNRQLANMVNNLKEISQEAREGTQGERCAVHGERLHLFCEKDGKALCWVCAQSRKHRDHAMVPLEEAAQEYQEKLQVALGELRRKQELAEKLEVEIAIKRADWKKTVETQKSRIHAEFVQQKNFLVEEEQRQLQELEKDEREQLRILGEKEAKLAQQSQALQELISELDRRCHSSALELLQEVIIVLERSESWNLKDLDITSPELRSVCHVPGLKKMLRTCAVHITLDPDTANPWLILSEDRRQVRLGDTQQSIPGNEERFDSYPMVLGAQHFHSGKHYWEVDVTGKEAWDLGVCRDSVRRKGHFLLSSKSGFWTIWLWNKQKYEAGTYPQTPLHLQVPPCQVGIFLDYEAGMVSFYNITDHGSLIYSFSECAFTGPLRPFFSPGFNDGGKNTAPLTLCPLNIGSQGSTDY

No constants are given. Whether binding was seen depends on the method and setting. In cells and extracts the contact can be indirect. Some entries that bind do so weakly or less than the wild type.

Turning to “tripartite motif-containing 21 (TRIM21) (from UniProt P19474 1-475)”, the binding entry is reported as “binds”.

The values are drawn from PMC10899426.
